Results as given in US20190144517A1 (SHANGHAI JW INFLINHIX, published 2019).
No constants are given. Whether binding was seen depends on the method and setting. Some results given as binding are weak or reduced against the parent protein; the word gives no strength.

Protein sequences, listed by entry. Tags and fused reporters are not part of them. Lines headed by an entry give the natural chain unless they say otherwise; changes in a name come on top.
UniProt P01375: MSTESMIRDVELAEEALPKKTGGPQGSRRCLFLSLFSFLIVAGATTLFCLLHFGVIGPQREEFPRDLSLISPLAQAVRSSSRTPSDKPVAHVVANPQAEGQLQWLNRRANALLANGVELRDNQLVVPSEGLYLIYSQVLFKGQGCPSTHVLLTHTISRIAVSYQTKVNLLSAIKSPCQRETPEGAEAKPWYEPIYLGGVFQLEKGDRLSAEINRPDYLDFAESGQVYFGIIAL

Biological target: monoclonal antibody 244-12
Assay: summary table, column 'binding to cell necrosis-promoting antibodies'

Substance	binding
polypeptide of SEQ ID NO: 2 (from UniProt P01375 77-233)	binds
Tumor necrosis factor alpha (TNF) (from UniProt P01375 77-233) (ligand)	binds
